The target of assay [1] is T1, COUP-TFII (endogenous, DN-MAML bEnd.3 cells) (mouse (endogenous in bEnd.3)) (UniProt P43135).
T1 sequence: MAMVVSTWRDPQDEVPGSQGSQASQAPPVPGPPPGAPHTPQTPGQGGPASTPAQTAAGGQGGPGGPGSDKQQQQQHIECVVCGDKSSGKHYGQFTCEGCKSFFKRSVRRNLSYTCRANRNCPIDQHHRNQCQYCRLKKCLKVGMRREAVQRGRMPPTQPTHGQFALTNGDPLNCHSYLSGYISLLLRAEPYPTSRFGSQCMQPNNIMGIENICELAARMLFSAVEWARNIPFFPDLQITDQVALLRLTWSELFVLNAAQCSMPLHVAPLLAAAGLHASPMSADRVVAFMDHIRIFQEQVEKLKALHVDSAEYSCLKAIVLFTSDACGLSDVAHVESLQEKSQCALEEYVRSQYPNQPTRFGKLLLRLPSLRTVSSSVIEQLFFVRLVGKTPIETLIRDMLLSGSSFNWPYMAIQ
The experiment in a line: proximity ligation.

Sequences of proteins named here, by UniProt entry; tags and fusion partners are left off. A change or cut given only in a name is not applied to a line headed by its entry. A line that says so, or that is headed by a name, gives the form on record, which may keep a tag or linker.
UniProt P97334: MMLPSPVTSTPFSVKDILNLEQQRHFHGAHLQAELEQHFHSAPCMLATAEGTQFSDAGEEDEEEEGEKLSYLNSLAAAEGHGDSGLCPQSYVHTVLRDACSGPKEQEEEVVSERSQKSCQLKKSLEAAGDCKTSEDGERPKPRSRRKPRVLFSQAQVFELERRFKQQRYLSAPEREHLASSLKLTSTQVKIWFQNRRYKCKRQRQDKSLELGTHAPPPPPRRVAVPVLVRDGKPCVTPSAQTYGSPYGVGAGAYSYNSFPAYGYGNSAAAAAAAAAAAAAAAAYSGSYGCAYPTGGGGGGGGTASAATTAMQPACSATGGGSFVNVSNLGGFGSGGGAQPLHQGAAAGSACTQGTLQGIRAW
NKX2-3^ΔTN (P97334, form named): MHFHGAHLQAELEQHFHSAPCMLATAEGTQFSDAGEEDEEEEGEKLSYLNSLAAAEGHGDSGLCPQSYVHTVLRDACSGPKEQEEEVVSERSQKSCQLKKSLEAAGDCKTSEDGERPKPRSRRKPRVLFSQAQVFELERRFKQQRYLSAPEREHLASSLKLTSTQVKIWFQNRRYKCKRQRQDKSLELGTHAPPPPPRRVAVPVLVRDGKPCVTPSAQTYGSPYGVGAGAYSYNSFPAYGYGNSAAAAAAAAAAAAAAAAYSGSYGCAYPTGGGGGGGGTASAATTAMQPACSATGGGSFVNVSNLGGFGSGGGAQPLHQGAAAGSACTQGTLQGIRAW

Assay [2] addresses T2, recombinant COUP-TFII (construct not told for this experiment) (mouse) (UniProt P43135).
T2 sequence: T1 sequence
The assay can be described thus: native gel or EMSA.

No constants are given. Whether binding was seen depends on the method and setting. For some assays here: In cells and extracts the contact can be indirect. Some entries that bind do so weakly or less than the wild type. For some assays here: Tags and fused reporters may be left off the sequences shown.

Consider “NKX2-3 (endogenous, DN-MAML bEnd.3 cells) (from UniProt P97334 1-362)”, for which, in assay [1], the binding entry is “binds”.
With NKX2-3^ΔTN (from UniProt P97334 1-362), the binding entry in assay [2] is “no binding”.

The values above are taken from publication doi:10.1101/2022.02.17.480956 (bioRxiv, 2022).
